Laboratory results reported in US10351871B2, “Desaturases and methods of using them for synthesis of polyunsaturated fatty acids” (Washington State University, priority 1998, dated 2019).

Tested on: Δ^5- and Δ^8-desaturases
Assay: Yeast cell transformed with both Δ^5- and Δ^8-desaturase genes (pYFAT4 + pYX232-541) fed fatty acid substrates, GC
Format: cell-based, Saccharomyces cerevisiae
Conditions: for Fatty acid uptake: overnight culture at 28° C.
From the text: The cDNA portion of pJW541 (Wallis and Browse, Arch. Biochem. Biophys. 365:307-316, 1999) containing the Euglena Δ^8-desaturase was excised from that plasmid with the restriction enzymes EcoRI and SpeI. The purified DNA fragment representing the insert was ligated into the yeast expression vector pYX232 (R&D Systems, Inc.) that had been prepared by digestion with EcoRI and NheI, to give compatible sticky ends. (Plasmid pYX232 carries the marker conferring yeast prototrophy for tryptophan (TRP1 mutation), and uses the triose phosphate isomerase (TPI) promoter for constitutive expression of the inserted DNA.) The resulting plasmid, pYX232-541, was introduced into the Saccharomyces cerevisiae strain already harboring the Δ^5-desaturase (pYFAT4; Watts and Browse, Arch. Biochem. Biophys. 362:175-182, 1999) plasmid that confers yeast prototrophy for uracil using a lithium acetate transformation procedure (Invitrogen). Transformants were selected simultaneously for uracil and tryptophan prototrophy. Selected colonies arising after the transformation were inoculated into yeast minimal medium that also lacked both uracil and tryptophan.
For analysis of activity, separate cultures were supplemented with one of three fatty acid substrates provided as sodium salts as described (Wallis and Browse, Arch. Biochem. Biophys. 365:307-316, 1999). After overnight culture at 28° C., the cultures were harvested by centrifugation and washed. Fatty acid methyl esters were prepared using the standard methods described in Miguel and Browse J. Biol. Chem. 267:1502-1509, 1992.

SMILES | 20-carbon fatty acid level of the total cellular fatty acid [%] | Fatty acid uptake
CCCCCCCCC=CCCCCCCCCCC(=O)O [20:1Δ^11] | 13 | 13 mass percent of whole cell fatty acids
CCCCCC=CCC=CCCCCCCCCCC(=O)O [20:2Δ^11,14] | 21 | 21 mass percent of whole cell fatty acids
CCC=CCC=CCC=CCCCCCCCCCC(=O)O [20:3Δ^11,14,17] | 37 | 37 mass percent of whole cell fatty acids

The amount applied is not stated for every result.
